# Results: PubChem BioAssay AID588590 (National Center for Advancing Translational Sciences (NCATS), 2011)
# By UniProt entry, the sequences of proteins in these tests, tags left out. Where a name states a change or a piece, a line headed by the entry shows the natural chain unless it says otherwise.
# UniProt Q9UNA4: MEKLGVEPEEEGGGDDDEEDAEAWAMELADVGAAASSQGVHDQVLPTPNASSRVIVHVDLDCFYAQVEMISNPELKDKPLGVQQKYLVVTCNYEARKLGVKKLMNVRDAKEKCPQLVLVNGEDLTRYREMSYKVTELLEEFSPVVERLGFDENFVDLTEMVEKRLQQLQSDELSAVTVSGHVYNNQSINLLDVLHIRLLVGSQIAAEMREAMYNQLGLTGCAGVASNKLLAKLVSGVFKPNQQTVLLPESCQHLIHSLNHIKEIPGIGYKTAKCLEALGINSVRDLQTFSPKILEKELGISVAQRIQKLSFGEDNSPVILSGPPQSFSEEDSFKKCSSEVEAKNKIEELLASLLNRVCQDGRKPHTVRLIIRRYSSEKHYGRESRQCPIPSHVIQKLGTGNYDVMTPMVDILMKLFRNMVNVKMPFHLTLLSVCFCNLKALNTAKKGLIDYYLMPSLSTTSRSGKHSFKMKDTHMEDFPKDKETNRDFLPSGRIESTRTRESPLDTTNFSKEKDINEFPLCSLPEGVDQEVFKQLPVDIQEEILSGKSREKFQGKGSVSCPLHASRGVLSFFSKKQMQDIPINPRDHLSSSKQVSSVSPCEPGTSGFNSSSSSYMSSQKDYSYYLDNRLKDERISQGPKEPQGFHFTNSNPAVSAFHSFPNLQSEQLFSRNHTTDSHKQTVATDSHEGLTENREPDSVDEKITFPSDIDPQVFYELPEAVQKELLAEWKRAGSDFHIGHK
# “And” between values parts separate entries of the source, which are not always exact repeats. Identical values can stand only once. About 4,000 (1%) of roughly 390,000 compounds were called active. Inconclusive means that the source gave no clear call. Such entries were picked first, then a sample of the others. The call rests on the fitted dose curve; in most records, active means well fitted inhibition curve with a large enough effect; inconclusive means small, poorly fitted or top-dose-only effect, or another doubt; inactive means no such curve, though single readings can be large or run the other way. A potency beside an inconclusive call is a rough fit, not a confirmed value.
# Target: DNA polymerase iota (Homo sapiens) (UniProt Q9UNA4)
# Test: qHTS for Inhibitors of Polymerase Iota
# Settings: Pol iota fluorescent replication assay, 10 min; series mostly up to 115 µM
# In short: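 Pol iota at 10 nM preincubated 15 min with compounds at room temperature; reaction started with fluorescent substrate, 50 nM final. Fluorescence read kinetically at 0 and 10 min; buffer-only wells as negative control.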
# Potency means the concentration at half of the fitted maximal effect.
row,SMILES,Potency
1,O=C(Cc1ccccc1)NN1CCCCC1,inactive
2,COCCNC(=O)c1onc(CSc2ccccc2C)c1C(=O)O,"inconclusive: 44.7 µM [inhibitor, partial curve, poor fit]"
3,O=C(Nc1ccc(Cl)cc1)N(C1=NCCC1)c1ccc(OC(F)F)cc1,"inconclusive: 89.1 µM [inhibitor, single point]"
4,Cc1nnc(SCC2=C(C(=O)O)N3C(=O)C(NC(=O)COc4ccccc4)C3SC2)s1 (centres undefined),"inconclusive: 10 µM [inhibitor, full curve, poor fit]"
5,Nc1nc(=S)c2ncn(C3OC(CO)C(O)C3O)c2[nH]1 (centres undefined),"inconclusive: 2.51 µM [inhibitor, full curve, poor fit]"
6,Cc1ncoc1C(=O)Nc1ncc([N+](=O)[O-])s1,"inconclusive: 10 µM [inhibitor, partial curve, poor fit]"
7,O=[N+]([O-])c1ccccc1S(=O)(=O)Nc1cccc(-c2ccc(N3CCCC3)nn2)c1,"inconclusive: 31.6 µM [inhibitor, partial curve, poor fit]"
8,CCCCCCN1N=C(C)C(C(=O)c2ccc(Cl)cc2)C1=O (centres undefined),"inconclusive: 25.1 µM [inhibitor, partial curve, poor fit]"
9,Cc1cccc(Cn2nc(C)cc2NC(=O)Cn2cc([N+](=O)[O-])cn2)c1,inactive
10,Cc1ccc(CN2CCN(/N=C/c3ccco3)CC2)c(C)c1,"inconclusive: 25.1 µM [inhibitor, partial curve, poor fit]"
11,NC(=O)c1ccc(NC(=O)CSc2cn(CC(=O)N3CCOCC3)c3ccccc23)cc1,"inconclusive: 0.708 µM [inhibitor, full curve, poor fit]"
12,CC(=O)Nc1ccccc1OCC(=O)NCC(F)(F)F,"inconclusive: 79.4 µM [inhibitor, partial curve, poor fit]"
13,CCN(C[C@H]1N[C@@](Cc2ccccc2)(C(=O)OC)[C@H]2C(=O)N(Cc3ccccc3)C(=O)[C@@H]12)C(C)=O,"inconclusive: 39.8 µM [inhibitor, single point]"
14,O=C(COc1ccccc1)Nc1sc2c(c1C(=O)NCc1cccnc1)CCCC2,"inconclusive: 8.91 µM [inhibitor, full curve, poor fit]"
15,Cc1cc(C)n2cc(CSc3nc4ccccc4[nH]3)nc2n1,"inconclusive: 89.1 µM [inhibitor, single point]"
16,O=C(COC(=O)CCC(=O)c1ccc(F)cc1)Nc1ccc2[nH]c(=O)[nH]c2c1,"inconclusive: 89.1 µM [inhibitor, single point]"
17,CCOC(=O)c1c(NC(=O)COC(=O)c2ccc(NC(=O)CC#N)cc2)sc(C(=O)NC)c1C,"inconclusive: 10 µM [inhibitor, partial curve, poor fit]"
18,COc1ccc(Cl)cc1NC(=O)COC(=O)c1ccc(C)o1,"inconclusive: 20 µM [inhibitor, partial curve]"
19,CCCC(=O)Nc1nc2c(OC)ccc(OC)c2s1,"inconclusive: 56.2 µM [inhibitor, single point]"
20,Fc1ccc(CNc2ncnc3c2c(-c2ccccc2)cn3-c2ccccc2)cc1,inactive

row,SMILES,Potency
1,CCN1C/C(=C/c2ccc(N3CCOCC3)cc2)C(=O)/C(=C/c2ccc(N3CCOCC3)cc2)C1,active: 79.4 µM
2,Cc1cc(/C=C(\C#N)C(=O)O)c(C)n1C1CC1,"inconclusive: 89.1 µM [inhibitor, partial curve, poor fit]"
3,CCOC(=O)c1cc(-c2ccccc2)n(CC(=O)NCc2ccccc2OC)c1C,inactive
4,COc1cccc(NC(=O)COC(=O)/C=C/c2ccco2)c1,"inconclusive: 22.4 µM [inhibitor, partial curve, poor fit]"
5,Cc1cc(C)c2c(=O)n(CC(=O)NC3CCCC3)sc2n1,"inconclusive: 25.1 µM [inhibitor, partial curve, poor fit]"
6,COc1cccc(-c2sc3ccc(OC)cc3c2-c2cc(F)cc(OC)c2)c1,"inconclusive: 0.631 µM [inhibitor, full curve, poor fit]"
7,COc1ccc(CCNC(=O)CCS(=O)(=O)c2ccc3c(c2)NC(=O)CO3)cc1OC,inactive
8,Cc1cc(=O)n2c3ccccc3n(CC(O)CN3CCCCC3)c2c1C#N (centres undefined),"inconclusive: 56.2 µM [inhibitor, partial curve, poor fit]"
9,Cc1ccc(NC(=O)CSc2nc3ccccc3c3nc(CCn4c(C)nc5ccccc54)nn23)cc1F,active: 79.4 µM
10,O=[N+]([O-])c1ccc(NN=Cc2cccc3ccccc23)cc1,inactive
11,C=CCOc1ccc(/C=C/C(=O)OCC(=O)NC2CCCCCC2)cc1,"inconclusive: 89.1 µM [inhibitor, partial curve, poor fit]"
12,CCCc1nnc(NC(=O)c2nc(S(=O)(=O)Cc3ccc(C)cc3)ncc2Cl)s1,"inconclusive: 14.1 µM [inhibitor, partial curve, poor fit] and inconclusive: 25.1 µM [inhibitor, single point]"
13,Cc1ccc(-n2ccc(=O)c(C(=O)Nc3ccc(S(=O)(=O)Nc4nccc(C)n4)cc3)n2)cc1,"inconclusive: 79.4 µM [inhibitor, single point]"
14,N/C(Cc1ccc([N+](=O)[O-])cc1)=N\OC(=O)COc1ccccc1Cl,inactive
15,COc1cc2c(cc1OC)C(c1ccccc1)N(C(=O)CCl)CC2 (centres undefined),"inconclusive: 10 µM [inhibitor, partial curve, poor fit]"
16,Cc1[nH]c2ccccc2c1N=Nc1cc(C(=O)O)cc(C(=O)O)c1,"inconclusive: 56.2 µM [inhibitor, partial curve, poor fit]"
17,CCOc1ccccc1NS(=O)(=O)c1c(-c2ccc(C)cc2)csc1C(=O)OC,inactive
18,N#Cc1ccc(NC(=O)Cn2cnc([N+](=O)[O-])c2)cc1,"inconclusive: 39.8 µM [inhibitor, partial curve, poor fit]"
19,COc1cccc(/C=C(/C#N)c2ccc(F)cc2)c1OCc1cccc(C(=O)O)c1,"inconclusive: 89.1 µM [inhibitor, single point]"
